Some of these results come from one statement about several compounds together. Part of at least one peptide drawing is inferred or uncertain, most often the ends.
Assay: Estimate of oral bioavailability: exposure in plasma after direct injection into the intestinal lumen of rats
Type: in vivo, Sprague Dawley rats
Settings: plasma concentration (pM) 30 min after injection in the jejunum divided by concentration of dosing solution (μM); 1000 uM in 55 mg/ml sodium caprate; rat

Question: Which “dose-corrected exposure at 30 min” value does the source give for `CC[C@H](C)[C@H](NC(=O)[C@H](Cc1ccccc1)NC(=O)[C@H](CCC(=O)O)NC(=O)[C@H](CCCCNC(=O)COCCOCCNC(=O)COCCOCCNC(=O)CC[C@H](NC(=O)CCCCCCCCCCCCCCCCC(=O)O)C(=O)O)NC(=O)[C@H](C)NC(=O)[C@H](C)NC(=O)[C@H](CCC(N)=O)NC(=O)CNC(=O)[C@H](CCC(=O)O)NC(=O)[C@H](CC(C)C)NC(=O)[C@H](Cc1ccc(O)cc1)NC(=O)[C@H](CO)NC(=O)[C@H](CO)NC(=O)[C@@H](NC(=O)[C@H](CC(=O)O)NC(=O)[C@H](CO)NC(=O)[C@@H](NC(=O)[C@H](Cc1ccccc1)NC(=O)[C@@H](NC(=O)CNC(=O)[C@H](CCC(=O)O)NC(=O)C(C)(C)NC(=O)[C@@H](N)Cc1cnc[nH]1)[C@@H](C)O)[C@@H](C)O)C(C)C)C(=O)N[C@@H](C)C(=O)N[C@@H](Cc1c[nH]c2ccccc12)C(=O)N[C@@H](CC(C)C)C(=O)N[C@H](C(=O)N[C@@H](CCCNC(=N)N)C(=O)NCC(=O)N[C@@H](CCCNC(=N)N)C(=O)NCC(=O)O)C(C)C` [semaglutide] here?
Answer: Its value is “below 40”.

From US9556250B2, “Double-acylated GLP-1 derivatives” (Novo Nordisk A/S, priority 2009, dated 2017)
